Binding data for one substance are collected here from article PMC12154174.

Protein sequences, listed by entry. Tags and fused reporters are not part of them.
UniProt O95613: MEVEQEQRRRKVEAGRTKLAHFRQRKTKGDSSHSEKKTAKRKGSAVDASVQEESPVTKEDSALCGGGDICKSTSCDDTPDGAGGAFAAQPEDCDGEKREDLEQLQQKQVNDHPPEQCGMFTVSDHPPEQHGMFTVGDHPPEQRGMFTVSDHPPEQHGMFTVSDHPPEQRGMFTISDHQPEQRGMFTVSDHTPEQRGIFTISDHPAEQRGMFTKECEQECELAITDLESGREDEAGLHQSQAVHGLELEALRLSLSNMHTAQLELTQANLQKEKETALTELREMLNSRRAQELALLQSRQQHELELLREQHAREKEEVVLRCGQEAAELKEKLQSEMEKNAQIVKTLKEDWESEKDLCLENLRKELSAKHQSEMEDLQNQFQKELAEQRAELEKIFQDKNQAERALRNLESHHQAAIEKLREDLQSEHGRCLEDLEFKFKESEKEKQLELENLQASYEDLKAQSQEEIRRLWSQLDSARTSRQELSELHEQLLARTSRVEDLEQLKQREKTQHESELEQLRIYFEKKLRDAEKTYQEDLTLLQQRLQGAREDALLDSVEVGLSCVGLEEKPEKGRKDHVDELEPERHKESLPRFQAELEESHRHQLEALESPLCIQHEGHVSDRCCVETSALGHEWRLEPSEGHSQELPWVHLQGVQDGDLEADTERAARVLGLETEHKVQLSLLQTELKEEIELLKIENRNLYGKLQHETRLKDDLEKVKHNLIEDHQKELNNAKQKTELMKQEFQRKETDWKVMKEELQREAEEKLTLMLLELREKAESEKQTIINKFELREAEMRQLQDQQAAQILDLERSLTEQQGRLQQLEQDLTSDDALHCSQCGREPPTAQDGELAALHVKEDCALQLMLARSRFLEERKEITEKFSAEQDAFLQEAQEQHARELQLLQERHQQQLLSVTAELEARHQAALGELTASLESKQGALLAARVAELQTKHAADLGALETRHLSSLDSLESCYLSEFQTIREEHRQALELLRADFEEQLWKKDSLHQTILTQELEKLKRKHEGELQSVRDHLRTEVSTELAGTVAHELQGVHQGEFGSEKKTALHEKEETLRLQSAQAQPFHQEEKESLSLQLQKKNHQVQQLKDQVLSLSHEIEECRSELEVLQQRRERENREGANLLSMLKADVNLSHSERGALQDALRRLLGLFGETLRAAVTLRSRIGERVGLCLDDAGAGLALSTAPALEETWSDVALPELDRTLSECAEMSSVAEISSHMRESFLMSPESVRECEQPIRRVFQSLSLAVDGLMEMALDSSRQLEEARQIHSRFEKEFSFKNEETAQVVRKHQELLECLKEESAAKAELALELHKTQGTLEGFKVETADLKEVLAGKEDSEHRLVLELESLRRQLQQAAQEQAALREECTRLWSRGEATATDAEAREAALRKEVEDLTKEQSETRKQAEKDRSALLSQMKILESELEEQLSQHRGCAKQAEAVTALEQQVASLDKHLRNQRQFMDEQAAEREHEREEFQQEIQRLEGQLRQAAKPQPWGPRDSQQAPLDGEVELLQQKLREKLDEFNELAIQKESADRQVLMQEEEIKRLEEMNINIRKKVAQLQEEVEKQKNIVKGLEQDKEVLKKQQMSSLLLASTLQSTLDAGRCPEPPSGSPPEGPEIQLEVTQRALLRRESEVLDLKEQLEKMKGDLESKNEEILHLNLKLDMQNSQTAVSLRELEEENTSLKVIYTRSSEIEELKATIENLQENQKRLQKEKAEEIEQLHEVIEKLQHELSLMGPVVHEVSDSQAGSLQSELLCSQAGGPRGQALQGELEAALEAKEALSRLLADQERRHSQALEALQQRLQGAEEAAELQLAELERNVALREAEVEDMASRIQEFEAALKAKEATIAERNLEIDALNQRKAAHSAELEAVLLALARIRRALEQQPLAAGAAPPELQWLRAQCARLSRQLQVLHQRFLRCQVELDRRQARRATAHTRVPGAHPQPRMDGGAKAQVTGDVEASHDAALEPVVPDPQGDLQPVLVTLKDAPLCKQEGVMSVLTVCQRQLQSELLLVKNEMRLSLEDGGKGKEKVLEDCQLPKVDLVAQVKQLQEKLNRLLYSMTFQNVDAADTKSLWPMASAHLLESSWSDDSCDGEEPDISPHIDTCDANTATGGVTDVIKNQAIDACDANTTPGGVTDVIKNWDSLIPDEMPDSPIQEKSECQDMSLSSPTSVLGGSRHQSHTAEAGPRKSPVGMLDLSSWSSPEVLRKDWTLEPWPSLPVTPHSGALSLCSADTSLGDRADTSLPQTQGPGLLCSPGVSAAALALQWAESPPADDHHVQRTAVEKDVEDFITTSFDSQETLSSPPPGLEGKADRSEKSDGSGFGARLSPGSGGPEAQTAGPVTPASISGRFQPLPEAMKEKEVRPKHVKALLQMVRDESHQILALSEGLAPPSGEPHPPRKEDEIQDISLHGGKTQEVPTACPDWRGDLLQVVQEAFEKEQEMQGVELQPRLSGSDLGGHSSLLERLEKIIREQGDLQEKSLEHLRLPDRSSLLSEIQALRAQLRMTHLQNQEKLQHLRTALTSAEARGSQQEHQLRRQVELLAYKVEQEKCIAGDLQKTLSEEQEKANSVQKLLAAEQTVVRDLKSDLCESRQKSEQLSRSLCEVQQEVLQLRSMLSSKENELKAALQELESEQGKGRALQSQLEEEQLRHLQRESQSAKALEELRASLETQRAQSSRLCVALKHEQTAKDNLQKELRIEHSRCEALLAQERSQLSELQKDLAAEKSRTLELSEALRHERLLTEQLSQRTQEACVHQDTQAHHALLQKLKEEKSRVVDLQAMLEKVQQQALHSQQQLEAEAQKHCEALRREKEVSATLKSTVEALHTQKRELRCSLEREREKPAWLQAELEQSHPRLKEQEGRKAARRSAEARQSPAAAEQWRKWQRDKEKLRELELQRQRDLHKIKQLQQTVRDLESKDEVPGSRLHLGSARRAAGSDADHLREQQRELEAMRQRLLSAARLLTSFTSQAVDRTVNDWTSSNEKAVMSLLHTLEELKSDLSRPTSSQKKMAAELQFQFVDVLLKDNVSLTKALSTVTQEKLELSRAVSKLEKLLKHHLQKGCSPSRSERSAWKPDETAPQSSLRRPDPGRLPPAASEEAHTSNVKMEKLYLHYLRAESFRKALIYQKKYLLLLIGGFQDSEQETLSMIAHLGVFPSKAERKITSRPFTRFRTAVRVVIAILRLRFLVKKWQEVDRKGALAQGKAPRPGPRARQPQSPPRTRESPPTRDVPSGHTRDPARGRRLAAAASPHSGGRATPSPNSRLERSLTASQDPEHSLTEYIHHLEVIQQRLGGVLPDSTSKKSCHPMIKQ
UniProt O14576: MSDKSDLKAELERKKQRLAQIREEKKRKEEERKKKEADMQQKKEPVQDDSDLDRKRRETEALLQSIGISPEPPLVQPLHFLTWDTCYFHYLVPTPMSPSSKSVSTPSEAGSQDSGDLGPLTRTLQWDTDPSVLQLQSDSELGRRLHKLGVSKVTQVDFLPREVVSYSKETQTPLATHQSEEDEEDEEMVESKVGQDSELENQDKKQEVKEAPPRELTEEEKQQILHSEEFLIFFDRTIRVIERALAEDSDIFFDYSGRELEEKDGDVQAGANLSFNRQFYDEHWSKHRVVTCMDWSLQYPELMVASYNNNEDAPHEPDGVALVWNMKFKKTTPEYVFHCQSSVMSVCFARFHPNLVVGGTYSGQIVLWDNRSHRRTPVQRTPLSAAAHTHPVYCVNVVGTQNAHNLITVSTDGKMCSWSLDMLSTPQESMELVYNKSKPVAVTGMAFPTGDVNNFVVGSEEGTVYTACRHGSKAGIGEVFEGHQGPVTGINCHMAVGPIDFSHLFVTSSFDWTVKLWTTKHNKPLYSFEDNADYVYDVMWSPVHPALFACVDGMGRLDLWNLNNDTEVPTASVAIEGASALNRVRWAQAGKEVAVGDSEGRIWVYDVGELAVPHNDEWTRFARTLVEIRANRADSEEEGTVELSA

No constants are given. Whether binding was seen depends on the method and setting. In cells and extracts the contact can be indirect. A yes stands for co-enrichment or nearness to the bait. Other partners may have been found.

This experiment has as its target PCNT-APEX2 (endogenous PCNT C-terminally tagged with ascorbate peroxidase 2) (human (endogenous in sHeLa)) (UniProt O95613). Description: proximity labelling.

Consider “dynein cytoplasmic 1 intermediate chain 1 (DYNC1I1) (from UniProt O14576 1-645)”, for which the binding result is “binds”.
